In patent US20190177416A1 (NANOMAB TECHNOLOGY, published 2019):
Results are given in words; binding and its absence hold for the method and conditions named. Some entries that bind do so weakly or less than the wild type.

By UniProt entry, the sequences of proteins in these tests, tags left out. Where a name states a change or a piece, a line headed by the entry shows the natural chain unless it says otherwise.
UniProt Q9NZQ7: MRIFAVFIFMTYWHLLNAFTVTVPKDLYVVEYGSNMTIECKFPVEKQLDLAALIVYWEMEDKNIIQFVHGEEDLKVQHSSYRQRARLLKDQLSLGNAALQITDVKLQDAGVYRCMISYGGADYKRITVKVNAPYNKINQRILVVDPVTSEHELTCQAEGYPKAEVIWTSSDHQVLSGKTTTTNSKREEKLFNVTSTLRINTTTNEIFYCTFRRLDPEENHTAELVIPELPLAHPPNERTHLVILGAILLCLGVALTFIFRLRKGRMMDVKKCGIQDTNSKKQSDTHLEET

What follows are binders tested against T1, human PD-L1 protein (coated antigen) (human, UniProt Q9NZQ7 19-238, limits assumed) (assay: PE-ELISA on coated PD-L1).
T1 construct: Construct not described; also called PD-L1 antigen; antigenic protein PD-L1

binding	Binder
binds	SEQ ID NO 8 (VHH, pMECS-expressed; also called anti-PD-L1 nanobody No. 8; VHH numbered 8) VHH: QVQLQESGGDSVQAGGSLRLACKVPGFTSNTCAMAWFRQAPGKEREFVSSISTGGTTGYAESAKGRFTLSKDEAKDTVYLQMNSLKPEDTAMYFCKSYACRTCIGRYCRTAPDAWGQGTQVTVSS
binds	SEQ ID NO 2 (VHH, pMECS-expressed; also called anti-PD-L1 nanobody No. 2; VHH numbered 2) VHH: QVQLQESGGGSVQAGGSLRLSCAVSRYSASNNVIKWMGWFRQAPGKEREGVAALYTSGGNTYYADSVKGRFTISRDYSENTVSLQMNNLKPEDTGMYYCATTVGTVLAGPLSARKYNYWGQGTQVTVSS
binds	SEQ ID NO 145 (VHH) VHH: QVQLQESGGGSVQAGGSLRLSCTAPGFTSNTCAMAWYRQAPGKEREFVSSRSTVGTTGYADSVKGRFTISKDEAKDTVYLQMNSLKPEDTAKYFCKTYACRDCIGRYCRTAPDAWGQGTQVTVSS
